# Results taken from publication PMC7966797, “A cold shock protein promotes high-temperature microbial growth through binding to diverse RNA species”.
# Target: T1, CspL (Bacillus coagulans 2-6) (UniProt A0A0C5C4D7)
# T1 sequence (looked up, limits assumed): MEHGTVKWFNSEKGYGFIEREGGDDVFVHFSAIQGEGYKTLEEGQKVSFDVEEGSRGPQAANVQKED
# Experiment: BLI
# Conditions: 20 ug/ml CspL, streptavidin sensor with 5'-biotin oligo, 20 mM PBS pH 7.4, 100 mM NaCl, 0.1% BSA, 0.02% Tween 20, CspL 20 ug/ml, recombinant protein, protein details: His, label: 5'-biotin
Sequence,binding result (single-stranded DNA),binding result
GGAATT [6 nt ssDNA (ssDNA 8)],binds,–
CGGGAGAGGCGGUUUGCGUAUUGU [24 nt RNA (RNA 1)],–,binds
GTACCCGGGGATCCTCTAGAGTCG [24 nt ssDNA (ssDNA 3)],binds,–
UAAUGA [6 nt RNA (RNA 10)],–,binds
AAUGC [5 nt RNA (RNA 15)],–,binds

# For at least one entry, the source does not settle the construct or the ends of the probe. At least one verdict rests on a figure or table, not on a statement of the authors. Tags and fusion partners may be left off the protein sequences shown.
